In patent US20250134889A1, “TARGETING IRE1 KINASE AND FMRP FOR PROPHYLAXIS, MANAGEMENT AND TREATMENT OF ATHEROSCLEROSIS” (CEDARS-SINAI MEDICAL CENTER, priority 2022, published 2025):
At least one compound was matched to its structure with a doubt left.

Test system: HEK293T cells
Experiment: ER stress-induced phosphorylation in control- or IRE1-siRNA transfected HEK293T cells (western blot)
Type: cell-based, human
Conditions: PA 500 μM or TG 600 nM, 4 hours, control cells
Protocol: FIGS. 1A-1K depict FMRP is a new inositol-requiring enzyme-1 (IRE1) kinase substrate. A representative blot is shown from at least n=3 independent experiments. Data are mean±SEM. Unpaired 1-test with Welch's correction or paired 1-test. * P≤0.05, ** P≤0.01, *** P≤0.001. • 1A. STING analysis of published IRE1 interactome proteins in relation to FMRP (Acosta-Alvear et al., 2018). • 1B. HEK293T cells were co-transfected with IRE1 and FMRP plasmids and stimulated with TG (600 nM) or TM (1 mg/ml) for 2 hours. Protein lysates were immunoprecipitated (IP) with anti-IRE1 or IgG (control) antibodies and analyzed by Western blotting using specific antibodies for FMRP and IRE1 (n=3). • 1C. RAW 264.7 mouse macrophages were treated with either oxLDL (50 μg/ml) or TG (300 nM) for 6 hours. Protein lysates were treated with λ Phosphatase (PPase) for 30 minutes and analyzed by western blotting using specific antibodies for pFMRP, FMRP, pIRE1, IRE1 and β-Actin. pFMRP/FMRP fold induction is depicted above the blots (n=6). • 1D. […] Protein lysates were analyzed by western blotting using specific antibodies for pFMRP, FMRP, pIRE1, IRE1 and β-Actin. pFMRP/FMRP-fold induction is depicted above the blots (n=5). • 1E. […] Protein lysates were analyzed by western blotting using specific antibodies for pFMRP, FMRP, pIRE1, IRE1 and β-Actin. pFMRP/FMRP fold induction is depicted above the blots (n=4). • 1F. […]

## CCCCCCCCCCCCCCCC(=O)O [PA, palmitate]
  phosphorylation of FMRP: induced
  phosphorylation of IRE1: induced
